# Laboratory results reported in article PMC12194085.
# Amino acid sequences for entries named in this document (tags omitted). A change or cut given only in a name is not applied to a line headed by its entry.
# UniProt A0A384K7V0: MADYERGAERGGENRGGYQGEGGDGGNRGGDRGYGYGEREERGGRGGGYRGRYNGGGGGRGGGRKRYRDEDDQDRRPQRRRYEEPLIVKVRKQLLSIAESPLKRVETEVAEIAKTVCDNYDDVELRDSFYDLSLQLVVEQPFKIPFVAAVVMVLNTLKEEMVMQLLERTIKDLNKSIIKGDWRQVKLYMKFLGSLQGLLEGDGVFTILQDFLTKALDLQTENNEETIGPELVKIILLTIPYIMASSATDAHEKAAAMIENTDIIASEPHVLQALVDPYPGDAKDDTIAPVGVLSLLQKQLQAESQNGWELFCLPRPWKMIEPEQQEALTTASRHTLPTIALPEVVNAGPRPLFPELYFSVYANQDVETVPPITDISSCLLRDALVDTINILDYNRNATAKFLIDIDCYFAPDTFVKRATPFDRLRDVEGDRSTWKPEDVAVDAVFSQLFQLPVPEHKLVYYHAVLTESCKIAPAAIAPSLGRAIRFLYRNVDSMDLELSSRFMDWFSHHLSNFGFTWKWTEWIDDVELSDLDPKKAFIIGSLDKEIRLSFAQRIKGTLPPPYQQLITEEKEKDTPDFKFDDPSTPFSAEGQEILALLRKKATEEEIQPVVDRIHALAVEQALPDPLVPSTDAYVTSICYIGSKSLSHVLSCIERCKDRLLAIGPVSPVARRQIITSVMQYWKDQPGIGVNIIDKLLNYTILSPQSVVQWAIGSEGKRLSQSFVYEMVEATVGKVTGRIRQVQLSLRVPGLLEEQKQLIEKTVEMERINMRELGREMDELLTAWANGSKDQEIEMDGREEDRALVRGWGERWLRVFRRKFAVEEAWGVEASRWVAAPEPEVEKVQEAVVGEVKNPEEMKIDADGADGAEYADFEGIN
# These are yes or no findings as the source states them, for the method shown. In cells and extracts the contact can be indirect. These calls come from enrichment with a bait or labelling near it, and not all partners need be listed.
# Biological target: BcCbp20::GFP (Botrytis cinerea)
# Assay: affinity purification with mass spectrometry; total proteins of BcCbp20::GFP:B05.10 mycelia on GFP-Trap magnetic beads, 4 °C overnight, washed with 20 mM Tris-HCl, 500 mM NaCl, pH 7.5; LC-MS/MS; WT strain as control
substance,measurement,value
BcCbp80 (from UniProt A0A384K7V0),binding,binds
